A short description of data set [1]: Spleen and thymus indices in H22-bearing mice. The data set is classed as in vivo, C57 mice. Particulars: cisplatin group.
The nature of data set [2]: Spleen and thymus indices in 4T1 breast tumor-bearing mice. The data set is classed as in vivo, BALB/c mice. Particulars: cisplatin 4 mg/kg.

Marks after values point to notes of the source that are not given here.

As to `N.N.[Cl][Pt][Cl]` [Cisplatin, cisplatin], the Spleen index in data set [1] is 2.5 ± 0.1^+ mg/g; in data set [2] it was 4.2 ± 0.3 ^ mg/g. The Thymus index is 0.3 ± 0.1*^+ mg/g in data set [1] and 0.06 ± 0.04 mg/g in data set [2].

The values above are taken from patent publication US20250144131A1, “POLYSACCHARIDE COMPOUND WITH A DEFINED MOLECULAR STRUCTURE FOR THE TREATMENT OF PULMONARY FIBROSIS” (SHENZHEN YANDAI INVESTMENT CO., LTD, priority 2023, published 2025).
